Molecules are shown by their SMILES. ± gives the standard deviation of the averaged measurements. The list shows a part of the results. Repeats are few or missing, and single values can be far off.

In this test the test system is RAW 264.7 macrophages infected with S. aureus JE2-lux. The test is described as follows: host macrophage viability (CellTiter-Fluor) relative to DMSO vehicle; higher = more viable host cells. Conditions: 10 µM; treatment time 4 h; gentamicin 50 µg/ml.
As to `Cc1nc2cc(-c3noc(C(C)Oc4ccccc4)n3)ccc2n(C)c1=O` (stereo not given), the host macrophage viability was 122%.
Under `CCOC(=O)c1ccc(NC(=O)/N=c2\c3ccccc3[nH]c(=O)n2C(C)C)cc1` stands 133%; under `COc1ccc(CCNC(=O)c2cnc3sccn3c2=O)cc1OC`, 109 ± 4.8%.
The value for `COc1cc(OC)cc(C(=O)NNc2nc3ccc(Cl)cc3s2)c1` was 102 ± 20%; that for `COc1ccc(OC)c(C(=O)CSc2nnc3ncccn23)c1` was 103%.
As to `O=C(CSc1nc(-c2ccco2)nc2cc(=O)[nH]n12)NCC1CCCO1` (stereo not given), the host macrophage viability was 112%.
Under `COc1ccc(CC(=O)n2nc(-c3ccccc3Cl)nc2N)cc1OC` stands 116%; under `COc1ccc(-c2ccc(SCC(=O)Nc3c[nH]c(=O)[nH]c3=O)nn2)cc1`, 103%; under `O=C(Cn1ncn2nc(-c3ccccc3)cc2c1=O)NCC1CCCO1` (stereo not given), 104%.
Regarding `O=C(NCC1CCCO1)C1CCCN(c2nccnc2Oc2ccccc2)C1` (stereo not given), the host macrophage viability stood at 83.1%.
Take `O=C(NCCCc1ccccc1)C(=O)NC1CCCC1`: the host macrophage viability came out at 105%.
The value for `Cc1ccc(NC(=O)CN2C(=O)C(=O)c3ccccc32)c(C)c1` was 130%; that for `Cc1cc(=O)n2nc(NCc3ccc(C(=O)NCc4ccccc4F)cc3)nc2[nH]1` was 125%; that for `CCc1ccc(NC(=O)C2CC3CSCN3C23C(=O)N(CC)c2ccccc23)cc1` (stereo not given) was 112%.
Under `CCSc1nsc(NC(=O)Nc2ccc(OC)c(OC)c2)n1` stands 93%.
The value for `COC(=O)C1=C(NC(=O)c2cccc([N+](=O)[O-])c2)CCS1` was 105%; that for `O=C(NCc1cccnc1)c1cnc(N2CCCCC2)c2ccccc12` was 120%; that for `O=C(NCc1ccccn1)C(=O)NCC(c1cccs1)N1CCc2ccccc21` (stereo not given) was 114%.
Consider `CC(=O)N(Cc1cccnc1)c1nc2cc3c(cc2s1)OCCO3`, for which the host macrophage viability was 116%.
Under `Cc1ccc(C)c(NC(=O)Cn2c(=O)n(Cc3ccco3)c(=O)c3sc4ccccc4c32)c1` stands 118%; under `CCCSc1nc2c(c(=O)[nH]1)C(c1ccc(C)o1)C1=C(CCCC1=O)N2` (stereo not given), 128%; under `COC(=O)c1c(-c2ccc(F)cc2)noc1Nc1cc(C)ccc1OC`, 101%.
Under `Cn1c(=O)c2c(nc3oc(-c4ccc(F)cc4)cn32)n(C)c1=O` stands 114 ± 8.3%; under `O=C1CCc2cc(S(=O)(=O)N3CCCC(CN4CCCC4)C3)ccc2N1` (stereo not given), 97.9%; under `CCCC1N=C2c3ccccc3N=C(SC(C)C(=O)Nc3ccccc3)N2C1=O` (stereo not given), 114%.
Under `COc1ccc2c(c1OC)C(=O)N(c1n[nH]c(SC)n1)C2=O` stands 99.4%; under `CCOC(=O)c1sc2nc(NC(=O)c3nc4ccccc4s3)sc2c1C`, 113%.
Turning to `CCc1nc2ccc(C(=O)NCc3n[nH]c4c3CCCC4)cc2nc1CC`, the host macrophage viability turned out to be 114%.
In the case of `COc1ccc(C(=O)C2CCN(CC(=O)Nc3ccc4c(c3)OCCO4)CC2)cc1`, the host macrophage viability was determined as 129%.
The value for `CCSc1nc2c(c(=O)[nH]1)C(c1cccc(Br)c1)C(C(=O)OC(C)C)=C(C)N2` (stereo not given) was 104%.

Values taken from the supplement of paper PMC12578635.
